Some of the results follow.
Tests used:
Experiment in all cases: glycan array binding signal (z-score within array); higher = stronger binding
Settings in all cases: glycan notation: IUPAC condensed, linker removed
[1] = target: Gal(b1-4)GlcNAc(b1-3)Gal(b1-4)GlcNAc(b1-2)Man(a1-3)[Gal(b1-4)GlcNAc(b1-3)Gal(b1-4)GlcNAc(b1-2)Man(a1-6)]Man(b1-4)GlcNAc(b1-4)[Fuc(a1-6)]GlcNAc
Method in brief: (§1)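 The binding signal is a Z-score computed within each array. Data were drawn from 3228 arrays in the Consortium for Functional Glycomics database, restricted to those with a known protein sequence. Scores were averaged over arrays of the same protein sequence at different concentrations or buffers, and over linkers, and negative values can be taken as non-binding.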

[2] = target: Gal(b1-4)GlcNAc(b1-3)Gal(b1-4)GlcNAc(b1-2)[Gal(b1-4)GlcNAc(b1-3)Gal(b1-4)GlcNAc(b1-6)]Man(a1-6)[Gal(b1-4)GlcNAc(b1-3)Gal(b1-4)GlcNAc(b1-2)Man(a1-3)]Man(b1-4)GlcNAc(b1-4)GlcNAc
Method in brief: as §1

[3] = target: Gal(b1-4)GlcNAc(b1-3)Gal(b1-4)GlcNAc(b1-2)[Gal(b1-4)GlcNAc(b1-3)Gal(b1-4)GlcNAc(b1-6)]Man(a1-6)[Gal(b1-4)GlcNAc(b1-3)Gal(b1-4)GlcNAc(b1-2)Man(a1-3)]Man(b1-4)GlcNAc(b1-4)[Fuc(a1-6)]GlcNAc
Method in brief: as §1

[4] = target: Gal(b1-4)GlcNAc(b1-3)Gal(b1-4)GlcNAc(b1-3)Gal(b1-4)GlcNAc
Method in brief: as §1

[5] = target: Gal(b1-4)GlcNAc(b1-3)Gal(b1-4)GlcNAc(b1-3)Gal(b1-4)GlcNAc(b1-2)Man(a1-3)[Gal(b1-4)GlcNAc(b1-3)Gal(b1-4)GlcNAc(b1-3)Gal(b1-4)GlcNAc(b1-2)Man(a1-6)]Man(b1-4)GlcNAc(b1-4)GlcNAc
Method in brief: as §1

[6] = target: Gal(b1-4)GlcNAc(b1-3)Gal(b1-4)GlcNAc(b1-3)Gal(b1-4)GlcNAc(b1-2)Man(a1-3)[Gal(b1-4)GlcNAc(b1-3)Gal(b1-4)GlcNAc(b1-3)Gal(b1-4)GlcNAc(b1-2)Man(a1-6)]Man(b1-4)GlcNAc(b1-4)[Fuc(a1-6)]GlcNAc
Method in brief: as §1

[7] = target: Gal(b1-4)GlcNAc(b1-3)Gal(b1-4)GlcNAc(b1-3)Gal(b1-4)GlcNAc(b1-2)[Gal(b1-4)GlcNAc(b1-3)Gal(b1-4)GlcNAc(b1-3)Gal(b1-4)GlcNAc(b1-6)]Man(a1-6)[Gal(b1-4)GlcNAc(b1-3)Gal(b1-4)GlcNAc(b1-3)Gal(b1-4)GlcNAc(b1-2)Man(a1-3)]Man(b1-4)GlcNAc(b1-4)[Fuc(a1-6)]GlcNAc
Method in brief: as §1

[8] = target: Gal(b1-4)GlcNAc(b1-3)Gal(b1-4)GlcNAc(b1-3)Gal(b1-4)GlcNAc(b1-3)Gal(b1-4)GlcNAc(b1-2)Man(a1-3)[Gal(b1-4)GlcNAc(b1-3)Gal(b1-4)GlcNAc(b1-3)Gal(b1-4)GlcNAc(b1-3)Gal(b1-4)GlcNAc(b1-2)Man(a1-6)]Man(b1-4)GlcNAc(b1-4)GlcNAc
Method in brief: as §1

[9] = target: Gal(b1-4)GlcNAc(b1-3)Gal(b1-4)GlcNAc(b1-3)Gal(b1-4)GlcNAc(b1-3)Gal(b1-4)GlcNAc(b1-2)Man(a1-3)[Gal(b1-4)GlcNAc(b1-3)Gal(b1-4)GlcNAc(b1-3)Gal(b1-4)GlcNAc(b1-3)Gal(b1-4)GlcNAc(b1-2)Man(a1-6)]Man(b1-4)GlcNAc(b1-4)[Fuc(a1-6)]GlcNAc
Method in brief: as §1

[10] = target: Gal(b1-4)GlcNAc(b1-3)Gal(b1-4)GlcNAc(b1-3)Gal(b1-4)GlcNAc(b1-3)Gal(b1-4)GlcNAc(b1-2)[Gal(b1-4)GlcNAc(b1-3)Gal(b1-4)GlcNAc(b1-3)Gal(b1-4)GlcNAc(b1-3)Gal(b1-4)GlcNAc(b1-6)]Man(a1-6)[Gal(b1-4)GlcNAc(b1-3)Gal(b1-4)GlcNAc(b1-3)Gal(b1-4)GlcNAc(b1-3)Gal(b1-4)GlcNAc(b1-2)Man(a1-3)]Man(b1-4)GlcNAc(b1-4)[Fuc(a1-6)]GlcNAc
Method in brief: as §1

[11] = target: Gal(b1-4)GlcNAc(b1-3)Gal(b1-4)GlcNAc(b1-3)Gal(b1-4)GlcNAc(b1-3)Gal(b1-4)GlcNAc(b1-3)Gal(b1-4)GlcNAc(b1-2)Man(a1-3)[Gal(b1-4)GlcNAc(b1-3)Gal(b1-4)GlcNAc(b1-3)Gal(b1-4)GlcNAc(b1-3)Gal(b1-4)GlcNAc(b1-3)Gal(b1-4)GlcNAc(b1-2)Man(a1-6)]Man(b1-4)GlcNAc(b1-4)GlcNAc
Method in brief: as §1

[12] = target: Gal(b1-4)GlcNAc(b1-3)Gal(b1-4)GlcNAc(b1-3)Gal(b1-4)GlcNAc(b1-3)Gal(b1-4)GlcNAc(b1-3)Gal(b1-4)GlcNAc(b1-2)Man(a1-3)[Gal(b1-4)GlcNAc(b1-3)Gal(b1-4)GlcNAc(b1-3)Gal(b1-4)GlcNAc(b1-3)Gal(b1-4)GlcNAc(b1-3)Gal(b1-4)GlcNAc(b1-2)Man(a1-6)]Man(b1-4)GlcNAc(b1-4)[Fuc(a1-6)]GlcNAc
Method in brief: as §1

[13] = target: Gal(b1-4)GlcNAc(b1-3)Gal(b1-4)GlcNAc(b1-3)Gal(b1-4)GlcNAc(b1-3)Gal(b1-4)GlcNAc(b1-3)Gal(b1-4)GlcNAc(b1-2)[Gal(b1-4)GlcNAc(b1-3)Gal(b1-4)GlcNAc(b1-3)Gal(b1-4)GlcNAc(b1-3)Gal(b1-4)GlcNAc(b1-3)Gal(b1-4)GlcNAc(b1-6)]Man(a1-6)[Gal(b1-4)GlcNAc(b1-3)Gal(b1-4)GlcNAc(b1-3)Gal(b1-4)GlcNAc(b1-3)Gal(b1-4)GlcNAc(b1-3)Gal(b1-4)GlcNAc(b1-2)Man(a1-3)]Man(b1-4)GlcNAc(b1-4)[Fuc(a1-6)]GlcNAc
Method in brief: as §1

[14] = target: Gal(b1-4)GlcNAc(b1-3)Gal(b1-4)GlcNAc(b1-3)Gal(b1-4)GlcNAc(b1-3)Gal(b1-4)GlcNAc(b1-3)Gal(b1-4)GlcNAc(b1-3)Gal(b1-4)GlcNAc(b1-2)Man(a1-3)[Gal(b1-4)GlcNAc(b1-3)Gal(b1-4)GlcNAc(b1-3)Gal(b1-4)GlcNAc(b1-3)Gal(b1-4)GlcNAc(b1-3)Gal(b1-4)GlcNAc(b1-3)Gal(b1-4)GlcNAc(b1-2)Man(a1-6)]Man(b1-4)GlcNAc(b1-4)GlcNAc
Method in brief: as §1

[15] = target: Gal(b1-4)GlcNAc(b1-3)Gal(b1-4)GlcNAc(b1-3)GalNAc
Method in brief: as §1

[16] = target: Gal(b1-4)GlcNAc(b1-3)Gal(b1-4)GlcNAc(b1-3)[Gal(b1-4)GlcNAc(b1-3)Gal(b1-4)GlcNAc(b1-6)]GalNAc
Method in brief: as §1

[17] = target: Gal(b1-4)GlcNAc(b1-3)Gal(b1-4)GlcNAc(b1-6)[Gal(b1-3)]GalNAc
Method in brief: as §1

[18] = target: Gal(b1-4)GlcNAc(b1-3)Gal(b1-4)[Fuc(a1-3)]GlcNAc(b1-3)Gal(b1-4)[Fuc(a1-3)]GlcNAc
Method in brief: as §1

[19] = target: Gal(b1-4)GlcNAc(b1-3)GalNAc
Method in brief: as §1

[20] = target: Gal(b1-4)GlcNAc(b1-3)[Fuc(a1-3)GlcNAc(b1-6)]Gal(b1-4)Glc
Method in brief: as §1

[21] = target: Gal(b1-4)GlcNAc(b1-3)[Gal(b1-4)GlcNAc(b1-6)]Gal(b1-4)GlcNAc
Method in brief: as §1

[22] = target: Gal(b1-4)GlcNAc(b1-3)[GlcNAc(b1-6)]Gal(b1-4)GlcNAc
Method in brief: as §1

[23] = target: Gal(b1-4)GlcNAc(b1-6)Gal(b1-4)GlcNAc
Method in brief: as §1

[24] = target: Gal(b1-4)GlcNAc(b1-6)GalNAc
Method in brief: as §1

[25] = target: Gal(b1-4)GlcNAc(b1-6)[Gal(b1-3)]GalNAc
Method in brief: as §1

[26] = target: Gal(b1-4)GlcNAc(b1-6)[Gal(b1-4)GlcNAc(b1-3)]GalNAc
Method in brief: as §1

[27] = target: Gal(b1-4)GlcNAc6P
Method in brief: as §1

[28] = target: Gal(b1-6)Gal
Method in brief: as §1

[29] = target: Gal3S(b1-3)GalNAc
Method in brief: as §1

[30] = target: Gal3S(b1-3)GlcNAc
Method in brief: as §1

[31] = target: Gal3S(b1-3)[Fuc(a1-4)]GlcNAc
Method in brief: as §1

[32] = target: Gal3S(b1-4)Glc
Method in brief: as §1

[33] = target: Gal3S(b1-4)Glc6S
Method in brief: as §1

[34] = target: Gal3S(b1-4)GlcNAc
Method in brief: as §1

[35] = target: Gal3S(b1-4)[Fuc(a1-3)]Glc6S
Method in brief: as §1

[36] = target: Gal3S(b1-4)[Fuc(a1-3)]GlcNAc
Method in brief: as §1

[37] = target: Gal3S(b1-4)[Fuc(a1-3)]GlcNAc6S
Method in brief: as §1

[38] = target: Gal3S4S(b1-4)GlcNAc
Method in brief: as §1

[39] = target: Gal3S6S(b1-4)GlcNAc
Method in brief: as §1

[40] = target: Gal3S6S(b1-4)GlcNAc6S
Method in brief: as §1

[41] = target: Gal4S(b1-4)GlcNAc
Method in brief: as §1

[42] = target: Gal4S6S(b1-4)GlcNAc
Method in brief: as §1

[43] = target: Gal6P(b1-4)GlcNAc
Method in brief: as §1

[44] = target: Gal6S(b1-3)GlcNAc
Method in brief: as §1

[45] = target: Gal6S(b1-3)GlcNAc6S
Method in brief: as §1

B1: AT3G09350(27) (Arabidopsis thaliana), Q84J81 (protein)
chain: MAKDGPNWDGLLKWSLSHADGTRPTRQLSEEDRKWFMEAMQSQTVDVVKRMKEITLVMQTPEQVLVEHGVTPEDIQDLLDELQEHVESIDMANDLHSIGGLVPLLSFLKNSHANIRAKAADVVSTIVQNNPRSQELVMETNALESLLSNFTSDTDIHARTQALGAISSLIRHNKPGVTAFKLANGYAGLRDALASDSVRFQRKALNLLQYLLQEDDSDRSIATGLGFPRVMMHLASSDDAEIREAALRGLLELSREKNDGSSSIDKSDEKLRQLLEERIKGITLMSQEDLETVKEERQLVDLLWSICYNEPSSLREKGLVVLPGEDALPPDVASKLFEPPLRASAANRNATEKKDEPMKLLGP
[1]
  glycan array binding signal (z-score): -0.388
[2]
  glycan array binding signal (z-score): 0.522
[3]
  glycan array binding signal (z-score): -0.221
[4]
  glycan array binding signal (z-score): -0.41
[5]
  glycan array binding signal (z-score): -0.106
[6]
  glycan array binding signal (z-score): 0.94
[7]
  glycan array binding signal (z-score): -0.634
[8]
  glycan array binding signal (z-score): 0.499
[9]
  glycan array binding signal (z-score): 0.211
[10]
  glycan array binding signal (z-score): 0.578
[11]
  glycan array binding signal (z-score): -0.471
[12]
  glycan array binding signal (z-score): -0.116
[13]
  glycan array binding signal (z-score): -0.025
[14]
  glycan array binding signal (z-score): 0.331
[15]
  glycan array binding signal (z-score): -0.711
[16]
  glycan array binding signal (z-score): 0.75
[17]
  glycan array binding signal (z-score): 0.664
[18]
  glycan array binding signal (z-score): -0.124
[19]
  glycan array binding signal (z-score): 0.107
[20]
  glycan array binding signal (z-score): -0.479
[21]
  glycan array binding signal (z-score): -0.6
[22]
  glycan array binding signal (z-score): -0.276
[23]
  glycan array binding signal (z-score): 3.1
[24]
  glycan array binding signal (z-score): 0.399
[25]
  glycan array binding signal (z-score): -0.205
[26]
  glycan array binding signal (z-score): -0.507
[27]
  glycan array binding signal (z-score): -0.474
[28]
  glycan array binding signal (z-score): -0.033
[29]
  glycan array binding signal (z-score): 0.155
[30]
  glycan array binding signal (z-score): -0.246
[31]
  glycan array binding signal (z-score): -0.345
[32]
  glycan array binding signal (z-score): 0.776
[33]
  glycan array binding signal (z-score): -0.31
[34]
  glycan array binding signal (z-score): 0.143
[35]
  glycan array binding signal (z-score): -0.174
[36]
  glycan array binding signal (z-score): 0.214
[37]
  glycan array binding signal (z-score): 0.294
[38]
  glycan array binding signal (z-score): -0.927
[39]
  glycan array binding signal (z-score): 1
[40]
  glycan array binding signal (z-score): 1.74
[41]
  glycan array binding signal (z-score): -0.27
[42]
  glycan array binding signal (z-score): -0.065
[43]
  glycan array binding signal (z-score): -0.424
[44]
  glycan array binding signal (z-score): -0.146
[45]
  glycan array binding signal (z-score): -0.279

From the supplement of paper PMC8728848
